Earlier results, collected in patent US20030086972A1, “Hydrogel-driven drug dosage form” (priority 2000, published 2003).
At least one compound was matched to its structure with a doubt left.

Settings: cited from earlier work

## COC(=O)C1=C(C)NC(C)=C(C(=O)OC)C1c1ccccc1[N+](=O)[O-] [Drug 4, nifedipine]
  light sensitivity: light-sensitive
